Some of the results follow.

Sequences of proteins named here, by UniProt entry; tags and fusion partners are left off.
UniProt Q0JBA9, entry or part of it: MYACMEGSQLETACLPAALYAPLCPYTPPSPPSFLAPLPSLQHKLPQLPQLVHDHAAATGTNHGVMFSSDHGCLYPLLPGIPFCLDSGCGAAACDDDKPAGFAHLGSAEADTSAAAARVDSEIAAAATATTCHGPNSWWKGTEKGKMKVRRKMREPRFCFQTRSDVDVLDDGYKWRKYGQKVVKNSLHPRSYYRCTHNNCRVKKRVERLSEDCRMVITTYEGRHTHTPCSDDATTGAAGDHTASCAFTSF

The values below come from article PMC7819943, “Rice protein-binding microarrays: a tool to detect cis-acting elements near promoter regions in rice”.

For the assay, the target named is OsWRKY34 (Oryza sativa, UniProt Q0JBA9 1-250). As to the kind of experiment: protein-binding microarray (RPBM); PBS, 2% BSA, 51.3 ng/ul salmon testes DNA, 50 uM zinc acetate, 200 nM TF, 25 C, 1 h; high values mean tight binding. Conditions: protein: recombinant; tags: N-terminal polyhistidine and DsRed monomer fusion (pET32a); label: CyDye5-dUTP incorporated in the synthesized complementary strand; 3' TTTTT single-stranded linker to array surface; dsDNA, one strand shown. Summed up: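 Transcription factors, each fused N-terminally to a polyhistidine tag and DsRed, were expressed in E. coli BL21-CodonPlus and purified on Ni–NTA. A custom Agilent array was made double-stranded by primer extension with Cy5-dUTP and blocked with 2% BSA. It was incubated with 200 nM protein in PBS, 2% BSA, salmon testes DNA and 50 µM zinc acetate at 25 °C for 1 h, then washed. The binding signal is per-feature fluorescence intensity (arbitrary units) read on an Axon 4000B scanner.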
For the sequence “TTCTTTTCGAAGATGCAACAGGCTTGGTTATCGATATATTCGGAGTCACCTAGTGCAG”, the binding signal was 8100 fluorescence intensity (a.u.).

For “CTCAATCTCGCATATACCCTGGTACCGACGATCCCCATACCGGAGTCACCTAGTGCAG”, the binding signal was 9840 fluorescence intensity (a.u.).

For the sequence “TCATGATATATCCCGTATAATATTCCGTCGAATTCACTATCGGAGTCACCTAGTGCAG”, the binding signal is 10100 fluorescence intensity (a.u.).

Consider “TCACCGAAAAGCTTGTCCTGTTCTCCAATGTTACCTTTCACGGAGTCACCTAGTGCAG”, for which the binding signal was 9860 fluorescence intensity (a.u.).

On to “TACATCGTCAAGTTCAACTTCATCAACTGCGATATTACCCCGGAGTCACCTAGTGCAG”, for which the binding signal is 9100 fluorescence intensity (a.u.).

Consider “CTCTTCCAGCTTCAATCCCACTGACAATCACACACACGACCGGAGTCACCTAGTGCAG”, for which the binding signal was 12600 fluorescence intensity (a.u.).

With “ATTTCTCCTTTTGCTTTTGGTCACAGACTCACTGCCACAGCGGAGTCACCTAGTGCAG”, the binding signal was 8300 fluorescence intensity (a.u.).

As to “AAATTGCTTACCGATCTAGTACTAGTACTATATCTTCATTCGGAGTCACCTAGTGCAG”, the binding signal was 8340 fluorescence intensity (a.u.).

On to “CTCTTTTTATCCACCTATTTATTCTTATATAGATAGTATCCGGAGTCACCTAGTGCAG”, for which the binding signal was 8540 fluorescence intensity (a.u.).

As to “ACTGTCTGCACGTACGCCACTCTACACAGTACGCACCGCACGGAGTCACCTAGTGCAG”, the binding signal was 8570 fluorescence intensity (a.u.).

Regarding “TTCTTTCTCCAGAGCCTGGGTCAGGTATGACCTGCTGTTCCGGAGTCACCTAGTGCAG”, the binding signal is 8670 fluorescence intensity (a.u.).

In the case of “TTTCTTCCAACAATGGACATGGTTTTACCGTTTTTTTTCCCGGAGTCACCTAGTGCAG”, the binding signal was 9250 fluorescence intensity (a.u.).

For “ATAAAATTTGTCATCTTCTGTTCCTTTTTACTGACAACACCGGAGTCACCTAGTGCAG”, the binding signal was 9990 fluorescence intensity (a.u.).

As to “GAACACACCCTATGTCCCTATCTGTGGATTGCCAGTGCGACGGAGTCACCTAGTGCAG”, the binding signal was 10100 fluorescence intensity (a.u.).

Regarding “TCACGCCAGCCGCCTCTTCCTGTGCTCTCGACGCCCGTCGCGGAGTCACCTAGTGCAG”, the binding signal was 8960 fluorescence intensity (a.u.).

Regarding “AGTTTCTCTATGCTTAAGTTTTTTTTTCTTATTTTGCTTTCGGAGTCACCTAGTGCAG”, the binding signal was 11300 fluorescence intensity (a.u.).

As to “AAGGGGAGAGTGTAGGGGCAAGGAAGGCGGCGTACAGATCCGGAGTCACCTAGTGCAG”, the binding signal is 10200 fluorescence intensity (a.u.).

Turning to “TGCATCTGTACGTTTCACTGAATTCCCCGTTGCTATACCGCGGAGTCACCTAGTGCAG”, the binding signal was 11200 fluorescence intensity (a.u.).

For the sequence “GTTTTCTGCCCTTAACATCTTGCGTACATATAAATTTCATCGGAGTCACCTAGTGCAG”, the binding signal was 11700 fluorescence intensity (a.u.).

On to “GCGTTGACCTGTCAGTCTCCCAGGGCCCCACCATCCACACCGGAGTCACCTAGTGCAG”, for which the binding signal was 10100 fluorescence intensity (a.u.).

As for “ACTGTTCGTCTTATTTAAAATTTTTTAAATATTATTTATACGGAGTCACCTAGTGCAG”, the binding signal is 12300 fluorescence intensity (a.u.).

In the case of “GCTCAAGTAAGATGAAAATTGTTCTGTCTTAACCTGCTTTCGGAGTCACCTAGTGCAG”, the binding signal was 9700 fluorescence intensity (a.u.).

With “CACTCCTCATTTCCTCCTCTTCTCTCGGCATCTTCATCTCCGGAGTCACCTAGTGCAG”, the binding signal was 8260 fluorescence intensity (a.u.).

“AATCTCCATCTTCTTGCTCGTACAACGTAAATACTCGTCTCGGAGTCACCTAGTGCAG”: the binding signal was 8830 fluorescence intensity (a.u.).

Take “CCACAAAAACCACCGCCTCGTCTCGTCGCCTCGCCTCCGCCGGAGTCACCTAGTGCAG”: the binding signal was 9620 fluorescence intensity (a.u.).

“GCTCTGAACTGTTGCCCATTGGTCTTATTTCCTCTGTATTCGGAGTCACCTAGTGCAG”: the binding signal was 12500 fluorescence intensity (a.u.).

As to “ACATGTTTTATAGATAGCACCTTACTTTACCATTGCGGGTCGGAGTCACCTAGTGCAG”, the binding signal is 9160 fluorescence intensity (a.u.).

On to “ATCTTGTAGAGCTCTTCGCACGGTACCAACTTTTAATTTCCGGAGTCACCTAGTGCAG”, for which the binding signal is 9190 fluorescence intensity (a.u.).

As to “TTTTTCTTTTTTCTAATTTTCTTCGTTTTATATCTCACAACGGAGTCACCTAGTGCAG”, the binding signal is 8100 fluorescence intensity (a.u.).

Consider “ATTCTCCATCCGAACCGCGCCACCACCCGCCGCCCTCATGCGGAGTCACCTAGTGCAG”, for which the binding signal was 8810 fluorescence intensity (a.u.).

On to “GGAGAGGCCCACTGTTTCTTCCACTTCTCGCCTTGCTCGCCGGAGTCACCTAGTGCAG”, for which the binding signal is 9160 fluorescence intensity (a.u.).

In the case of “TTACTCCCGCCTCACTATCTGTCTTGGCGCGTCGTGTACACGGAGTCACCTAGTGCAG”, the binding signal was 10500 fluorescence intensity (a.u.).

On to “TGGTGCCAACTTATTCTCCAGCTGCTTTTTTTTACCTATGCGGAGTCACCTAGTGCAG”, for which the binding signal is 8130 fluorescence intensity (a.u.).

In the case of “CGTGTCCCGCATCACGTGTCCTCCGCCCGTCCACTGCTTTCGGAGTCACCTAGTGCAG”, the binding signal was 10900 fluorescence intensity (a.u.).

“CCGGCAATCCTCCCACGTCGTCTTCCTCTCGAATTTCGCACGGAGTCACCTAGTGCAG”: the binding signal was 8030 fluorescence intensity (a.u.).

Take “TTCATATGACTCTTGCTAATAGTAATAGCCTCTTGAACTACGGAGTCACCTAGTGCAG”: the binding signal was 8320 fluorescence intensity (a.u.).

Consider “TCGTTCAATTTACATCCCTTAGTTCAACATCTTAGTTCTACGGAGTCACCTAGTGCAG”, for which the binding signal is 10200 fluorescence intensity (a.u.).

In the case of “ACTCGATTTGTACATTTTTATTGGTTGCATGGCCACAATTCGGAGTCACCTAGTGCAG”, the binding signal was 9870 fluorescence intensity (a.u.).

As to “GGCCTCAGATTTGTCAGCTCCTTGCTTCATCTCCTCCTAACGGAGTCACCTAGTGCAG”, the binding signal was 9890 fluorescence intensity (a.u.).

Consider “CGCGATGTGGCCTTGTCCGTCTCCACTCCTGCTCGTCTCCCGGAGTCACCTAGTGCAG”, for which the binding signal is 11600 fluorescence intensity (a.u.).

Consider “AGATTGTTTACTCACACGATGTTTTGTTGTTCTTTGTCATCGGAGTCACCTAGTGCAG”, for which the binding signal is 8430 fluorescence intensity (a.u.).

In the case of “CCATTTCTTTCTACTTCCCTTGCTGTTCTTGCCACCCTCTCGGAGTCACCTAGTGCAG”, the binding signal was 12500 fluorescence intensity (a.u.).
